In the experiment the target is T1, Aspartate β-hydroxylase (UniProt Q12797).
T1 sequence: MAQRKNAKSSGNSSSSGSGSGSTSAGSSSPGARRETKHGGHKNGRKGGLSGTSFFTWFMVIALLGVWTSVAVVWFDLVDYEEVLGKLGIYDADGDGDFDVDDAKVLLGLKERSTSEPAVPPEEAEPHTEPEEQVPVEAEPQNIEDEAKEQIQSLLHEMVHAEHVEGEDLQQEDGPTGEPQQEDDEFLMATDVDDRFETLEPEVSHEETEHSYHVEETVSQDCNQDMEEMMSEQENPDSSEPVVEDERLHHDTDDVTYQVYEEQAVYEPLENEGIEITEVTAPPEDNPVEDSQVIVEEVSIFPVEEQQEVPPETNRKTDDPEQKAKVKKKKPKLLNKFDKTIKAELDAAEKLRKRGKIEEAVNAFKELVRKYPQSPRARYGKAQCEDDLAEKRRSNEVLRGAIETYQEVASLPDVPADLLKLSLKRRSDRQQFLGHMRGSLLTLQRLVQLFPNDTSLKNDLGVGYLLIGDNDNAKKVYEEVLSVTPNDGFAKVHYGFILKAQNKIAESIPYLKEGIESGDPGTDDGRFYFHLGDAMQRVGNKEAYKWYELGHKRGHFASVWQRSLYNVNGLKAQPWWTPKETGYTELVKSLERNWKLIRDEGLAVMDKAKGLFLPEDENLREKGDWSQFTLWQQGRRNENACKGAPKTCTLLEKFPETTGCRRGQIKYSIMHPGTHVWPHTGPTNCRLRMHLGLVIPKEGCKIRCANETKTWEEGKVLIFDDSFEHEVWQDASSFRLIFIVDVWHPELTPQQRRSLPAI
The experiment can be described thus: co-IP; HEK293 cells transfected with a total of 10 μg corresponding plasmids; harvested in PBS containing 1% NP40; detection by Western blot; which protein was precipitated is not told. Background: Immunoblotting shows a protein as a band on a membrane.

Amino acid sequences for entries named in this document (tags omitted). A change or cut given only in a name is not applied to a line headed by its entry.
UniProt O43184: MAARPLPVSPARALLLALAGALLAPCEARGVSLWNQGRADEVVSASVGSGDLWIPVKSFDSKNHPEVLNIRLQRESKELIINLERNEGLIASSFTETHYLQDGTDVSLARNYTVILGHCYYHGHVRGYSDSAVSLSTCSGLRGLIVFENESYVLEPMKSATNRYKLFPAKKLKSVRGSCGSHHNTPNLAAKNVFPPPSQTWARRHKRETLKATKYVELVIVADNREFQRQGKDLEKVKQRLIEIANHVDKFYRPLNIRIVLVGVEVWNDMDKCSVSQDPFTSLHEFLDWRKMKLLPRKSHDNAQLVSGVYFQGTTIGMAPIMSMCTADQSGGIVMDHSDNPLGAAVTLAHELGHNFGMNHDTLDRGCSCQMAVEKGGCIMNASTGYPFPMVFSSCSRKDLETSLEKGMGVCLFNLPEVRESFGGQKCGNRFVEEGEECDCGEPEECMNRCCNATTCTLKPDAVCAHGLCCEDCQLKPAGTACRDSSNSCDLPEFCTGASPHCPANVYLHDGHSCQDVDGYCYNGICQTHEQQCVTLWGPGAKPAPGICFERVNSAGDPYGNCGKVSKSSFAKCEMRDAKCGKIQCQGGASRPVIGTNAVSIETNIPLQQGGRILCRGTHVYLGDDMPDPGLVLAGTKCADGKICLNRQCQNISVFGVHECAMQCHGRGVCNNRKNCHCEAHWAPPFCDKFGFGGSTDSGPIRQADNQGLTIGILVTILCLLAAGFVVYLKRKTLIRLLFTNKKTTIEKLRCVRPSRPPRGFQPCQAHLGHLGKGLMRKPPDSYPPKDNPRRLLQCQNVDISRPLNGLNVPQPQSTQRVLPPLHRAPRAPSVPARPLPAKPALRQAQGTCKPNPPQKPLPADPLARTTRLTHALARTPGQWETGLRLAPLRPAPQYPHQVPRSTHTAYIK
UniProt Q13444: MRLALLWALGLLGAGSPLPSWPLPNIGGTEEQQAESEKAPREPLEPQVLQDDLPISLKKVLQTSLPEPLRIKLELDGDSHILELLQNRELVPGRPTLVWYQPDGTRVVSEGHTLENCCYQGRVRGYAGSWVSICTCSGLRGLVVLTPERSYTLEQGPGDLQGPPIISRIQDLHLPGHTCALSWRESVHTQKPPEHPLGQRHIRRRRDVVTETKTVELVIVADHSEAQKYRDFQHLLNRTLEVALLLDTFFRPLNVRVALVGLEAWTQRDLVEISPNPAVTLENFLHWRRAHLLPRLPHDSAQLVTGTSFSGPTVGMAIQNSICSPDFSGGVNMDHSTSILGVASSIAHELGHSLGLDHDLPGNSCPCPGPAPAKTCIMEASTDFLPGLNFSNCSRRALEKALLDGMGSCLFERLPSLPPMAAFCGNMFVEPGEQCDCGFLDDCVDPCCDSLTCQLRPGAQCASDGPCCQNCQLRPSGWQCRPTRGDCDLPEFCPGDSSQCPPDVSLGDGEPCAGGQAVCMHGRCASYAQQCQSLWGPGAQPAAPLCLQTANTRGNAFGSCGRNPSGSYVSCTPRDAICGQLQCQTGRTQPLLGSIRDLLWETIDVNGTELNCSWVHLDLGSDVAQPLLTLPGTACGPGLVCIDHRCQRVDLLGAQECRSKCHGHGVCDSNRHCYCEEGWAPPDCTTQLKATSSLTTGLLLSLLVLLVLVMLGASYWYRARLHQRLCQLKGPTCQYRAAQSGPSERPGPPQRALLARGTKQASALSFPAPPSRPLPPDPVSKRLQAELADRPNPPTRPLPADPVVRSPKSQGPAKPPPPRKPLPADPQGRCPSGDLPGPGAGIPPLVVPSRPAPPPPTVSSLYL

Results are given in words; binding and its absence hold for the method and conditions named. In cells and extracts the contact can be indirect. Binding can be weak; no strength is given.

On to ADAM12 (from UniProt O43184), for which the binding result is reported as “binds”. As to ADAM15 (from UniProt Q13444), the binding result is “binds”.

These data come from publication PMC6937817.
